No constants are given. Whether binding was seen depends on the method and setting. Binding seen in cells or lysates may run through a third protein.
Columns and labels:
[1] = target: T1, FosB (mouse (endogenous in DRG)) (UniProt P13346); assay: co-IP; lysates of mouse DRG (control, STZ diabetic, Ascl1/Lhx6-treated STZ groups); immunoprecipitation buffer with Tris-HCl, NaCl, MgCl2, EDTA, Triton X-100, glycerol; precleared with protein A/G PLUS-agarose; immunoprecipitated with rabbit anti-c-Fos, anti-JunD, anti-FosB, anti-FoxK1, anti-GNG3; washed with 50 mM Tris-HCl pH 7.4, 150 mM NaCl, 10 mM EDTA, 1% NP-40
T1 sequence: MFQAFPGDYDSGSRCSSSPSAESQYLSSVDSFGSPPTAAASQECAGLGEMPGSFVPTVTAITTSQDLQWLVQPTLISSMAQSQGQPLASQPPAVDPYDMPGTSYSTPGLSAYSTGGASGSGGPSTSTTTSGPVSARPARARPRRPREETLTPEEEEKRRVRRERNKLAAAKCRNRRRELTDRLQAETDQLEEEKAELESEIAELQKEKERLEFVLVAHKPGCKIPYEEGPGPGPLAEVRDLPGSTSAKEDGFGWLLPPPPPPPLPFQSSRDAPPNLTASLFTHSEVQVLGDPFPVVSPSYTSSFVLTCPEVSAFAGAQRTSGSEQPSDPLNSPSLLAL

[2] = target: T2, JunD (mouse (endogenous in DRG)) (UniProt P15066); assay: as above
T2 sequence: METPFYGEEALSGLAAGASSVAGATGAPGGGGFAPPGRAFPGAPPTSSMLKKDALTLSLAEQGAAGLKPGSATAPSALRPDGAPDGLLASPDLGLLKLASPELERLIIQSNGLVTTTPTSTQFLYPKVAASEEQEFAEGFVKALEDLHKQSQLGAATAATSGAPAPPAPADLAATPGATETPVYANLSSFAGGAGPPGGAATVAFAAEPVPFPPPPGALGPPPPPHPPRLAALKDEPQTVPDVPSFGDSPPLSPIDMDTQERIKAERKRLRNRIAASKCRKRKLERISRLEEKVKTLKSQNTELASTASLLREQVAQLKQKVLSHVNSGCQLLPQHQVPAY

Foxn3 (mouse (endogenous in DRG))
binding [1]: no binding
binding [2]: no binding

From PMC11852955
